The values that follow come from US20030195152A1 (priority 2000, published 2003).

The data set can be described thus: general procedure: peptide synthesis; Wang resin; TBTU, HOBt, DIPEA. Conditions: conjugation step, trifluoroacetate.

As for “4-deacetyl-4-O-(t-butoxycarbonyl-6-aminohexanoyl-leucyl-glycyl-leucyl)-vinblastine”, the conjugation yield came out at 75% yield.
